Experimental findings from the supplement of paper PMC8104966 are described below.

Several values for one entry are separate records, joined by “and”; a condition that tells them apart may be missing. Equal entries are not always repeated. This is one part of the list. Repeats in this data set agree poorly, so a single value says little.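 Fusion between ACE2-bearing and full-length-spike-bearing U2OS cells was measured by imaging as the percentage of nuclei with both cell types' fluorescent markers. An inhibitory hit is a non-toxic compound whose fusion z-score is below -3, more than three standard deviations beneath the plate's DMSO wells.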

The test system of the experiment is U2OS ACE2 x SARS-CoV-2 spike co-culture. Nature of the experiment: cell-cell fusion (fraction fused) z-score vs plate DMSO control; higher = more fusion. Conditions: 30 µM; 5 h; toxicity class: non-toxic, passed QC.
As to `NC(CP(=O)(O)O)C(=O)O` (racemic) [(±)-2-Amino-3-phosphonopropionic acid], the “cell-cell fusion (z-score)” value was inactive: 1.18.
For `C=C(CC)C(=O)c1ccc(OCC(=O)O)c(Cl)c1Cl` [Ethacrynic acid], the “cell-cell fusion (z-score)” value is inactive: 1.21.
On to `CC(=O)OCC[N+](C)(C)C.[Cl-]`, for which the “cell-cell fusion (z-score)” value was inactive: 0.523.
With `CC(=O)OCC[N+](C)(C)C.[Cl-]` [Acetylcholine chloride], the “cell-cell fusion (z-score)” value is inactive: 1.95.
The result for `COC1=C(OC)C(=O)C(CCCCCCCCCCO)=C(C)C1=O` reads inactive: 0.882; that for `Cl.c1ccc(CN2CCC3(CCCc4ccccc43)CC2)cc1` [L-687,384 hydrochloride], inactive: 3.28.
In the case of `Cc1nc2sccn2c(=O)c1CCN1CCC(=C(c2ccc(F)cc2)c2ccc(F)cc2)CC1` it was inactive: 1.8.
In the case of `Cc1nc2sccn2c(=O)c1CCN1CCC(=C(c2ccc(F)cc2)c2ccc(F)cc2)CC1` [Ritanserin], the “cell-cell fusion (z-score)” value is active: -16.4.
The result for `CO/N=C(/C(=O)NC1C(=O)N2C(C(=O)O)=C(CSc3nnnn3C)CSC12)c1csc(N)n1.Cl` (stereo not given) reads inactive: 2.04; that for `NCCOB(c1ccccc1)c1ccccc1`, inactive: 2.66; that for `Cc1cnc(C(=O)N[C@H]2CCCCC/C=C\[C@@H]3C[C@@]3(C(=O)NS(=O)(=O)C3CC3)NC(=O)[C@@H]3C[C@@H](Oc4nc5ccccc5c5ccccc45)CN3C2=O)cn1` [Paritaprevir], inactive: 4.22.
In the case of `CN[C@@H]1[C@H](O[C@H]2[C@H](O[C@H]3[C@H](O)[C@@H](O)[C@H](NC(=N)N)[C@@H](O)[C@@H]3NC(=N)N)O[C@@H](C)[C@]2(O)C=O)O[C@@H](CO)[C@H](O)[C@H]1O.CN[C@@H]1[C@H](O[C@H]2[C@H](O[C@H]3[C@H](O)[C@@H](O)[C@H](NC(=N)N)[C@@H](O)[C@@H]3NC(=N)N)O[C@@H](C)[C@]2(O)C=O)O[C@@H](CO)[C@H](O)[C@H]1O.O=S(=O)(O)O.O=S(=O)(O)O.O=S(=O)(O)O` [Streptomycin sulfate] it was inactive: 3.76; in that of `CC[C@H]1OC(=O)[C@H](C)[C@@H](O[C@H]2C[C@@](C)(OC)[C@@H](O)[C@H](C)O2)[C@H](C)[C@@H](O[C@@H]2O[C@H](C)C[C@H](N(C)C)[C@H]2O)[C@](C)(O)C[C@@H](C)[C@@H]2N[C@@H](COCCOC)O[C@H]([C@H]2C)[C@]1(C)O` [Dirithromycin], inactive: 1.99; in that of `CC[C@H]1OC(=O)[C@H](C)[C@@H](O[C@H]2C[C@@](C)(OC)[C@@H](O)[C@H](C)O2)[C@H](C)[C@@H](O[C@@H]2O[C@H](C)C[C@H](N(C)C)[C@H]2O)[C@](C)(O)C[C@@H](C)[C@@H]2N[C@@H](COCCOC)O[C@H]([C@H]2C)[C@]1(C)O`, inactive: 3.41.
`O=P([O-])(O)C(O)(Cc1cccnc1)P(=O)(O)O.[Na+]` [Risedronate Sodium]: the “cell-cell fusion (z-score)” value is inactive: 3.15.
The result for `C=CC(N)CCC(=O)O` (racemic) [(±)-gamma-Vinyl GABA] reads inactive: 1.76.
The result for `CC(COc1ccccc1)N(CCCl)Cc1ccccc1.Cl` (stereo not given) reads inactive: 3.26.
The result for `Cc1c(OCC(F)(F)F)ccnc1CS(=O)c1nc2ccccc2[nH]1` (stereo not given) reads inactive: 2.66; that for `CC1=C(C(=O)O)N2C(=O)[C@@H](N)[C@H]2SC1` [Cefalexine EP IMpurity B], inactive: 0.701.
Turning to `CC1(C)C(=O)[C@@H]2C[C@@]3(O)C4=CC(=O)O[C@@H](c5ccoc5)[C@]4(C)CCC3[C@@](C)(C2=O)[C@H]1CC(=O)O` (stereo not given in full), the “cell-cell fusion (z-score)” value was inactive: 2.18.
In the case of `Oc1ccc2ccccc2c1SSc1c(O)ccc2ccccc12` it was active: -6.24; in that of `CN(C)CCC(c1ccc(Br)cc1)c1ccccn1.O=C(O)/C=C\C(=O)O` (racemic) [(±)-Brompheniramine maleate], inactive: 2.66.
For the molecule `CCOC(=O)c1ccc(N)cc1`, the “cell-cell fusion (z-score)” value was inactive: 1.21.
As to `O=[N+]([O-])c1ccc([As](=O)(O)O)cc1`, the “cell-cell fusion (z-score)” value is inactive: 1.51.
For `CC(C)OC(=O)OCOP(=O)(COC(C)Cn1cnc2c(N)ncnc21)OCOC(=O)OC(C)C` (stereo not given) [Tenofovir Disoproxil], the “cell-cell fusion (z-score)” value is inactive: 1.18.
With `CCCOc1ccc(C(=O)OCCN(CC)CC)cc1N.Cl` [Proparacaine hydrochloride], the “cell-cell fusion (z-score)” value is inactive: 2.02.
Turning to `CC1(C)S[C@@H]2[C@H](NC(=O)C(C(=O)[O-])c3ccsc3)C(=O)N2[C@H]1C(=O)[O-].[Na+].[Na+]` (stereo not given in full) [Ticarcillin disodium], the “cell-cell fusion (z-score)” value is inactive: 2.38.
In the case of `CC1(C)C(=O)C=C[C@@]2(C)C1CC(=O)[C@]1(C)C2CC[C@@]2(C)[C@H](c3ccoc3)OC(=O)[C@H]3O[C@]321` (stereo not given in full) it was inactive: 0.538.
In the case of `CCC(=O)OCC(=O)[C@@]1(OC(=O)CC)[C@@H](C)C[C@H]2[C@@H]3CCC4=CC(=O)C=C[C@]4(C)[C@@]3(Cl)[C@@H](O)C[C@@]21C` [Beclomethasone dipropionate] it was inactive: -1.86; in that of `Cc1ccccc1-n1c(Cn2cnc3c(N)ncnc32)nc2cccc(C)c2c1=O`, inactive: 0.263; in that of `COc1cc([C@H]2Oc3cc([C@H]4Oc5cc(O)cc(O)c5C(=O)[C@@H]4O)ccc3O[C@@H]2CO)ccc1O`, inactive: 1.42.
The result for `N[C@H](C(=O)O)[C@H](O)c1ccc(O)c(O)c1` reads inactive: 2.64; that for `COc1cc(/C=C/C(=O)O)ccc1O`, inactive: 1.84; that for `Cc1ccc(S(=O)(=O)O)cc1.NC(=O)c1cccc2cn(-c3ccc([C@@H]4CCCNC4)cc3)nc12` [Niraparib tosylate], inactive: -0.167.
On to `Cl.Clc1ccc2nsnc2c1NC1=NCCN1` [Tizanidine hydrochloride], for which the “cell-cell fusion (z-score)” value is inactive: 0.723.
In the case of `Brc1c(NC2=NCCN2)ccc2nccnc12.O=C(O)[C@H](O)[C@@H](O)C(=O)O` [Brimonidine Tartrate] it was inactive: 2.22.
The result for `CC(=O)[C@@]12O[C@](C)(c3ccccc3)O[C@@H]1CC1C3CCC4=CC(=O)CC[C@]4(C)C3CC[C@@]12C` (stereo not given in full) reads inactive: 4.14; that for `CC1Cc2ccccc2N1NC(=O)c1ccc(Cl)c(S(N)(=O)=O)c1` (stereo not given) [Indapamide], inactive: 0.188.
With `CNCCc1ccccn1.Cl.Cl`, the “cell-cell fusion (z-score)” value is inactive: 2.83.
On to `O=C(O)CCC(=O)O.c1ccc(C2(c3ccccc3)CC2C2=NCCN2)cc1` (stereo not given) [Cibenzoline succinate], for which the “cell-cell fusion (z-score)” value was inactive: 2.17.
On to `C[C@H](CCC(=O)NCC(=O)O)[C@H]1CCC2C3C(C[C@H](O)[C@@]21C)[C@@]1(C)CC[C@@H](O)CC1C[C@H]3O` (stereo not given in full), for which the “cell-cell fusion (z-score)” value is inactive: 2.22.
Take `C1CCN2C[C@@H]3C[C@H](CN4CCCC[C@@H]34)[C@H]2C1.I`: the “cell-cell fusion (z-score)” value is inactive: 3.45.
On to `COc1cc(C(O)CN)ccc1O.Cl` (racemic) [(±)-Normetanephrine hydrochloride], for which the “cell-cell fusion (z-score)” value was inactive: 2.24.
In the case of `Nc1nc(Cl)nc2c1ncn2[C@@H]1O[C@H](CO)[C@H](O)C1O` (stereo not given in full) [2-Chloroadenosine] it was inactive: 0.646; in that of `NS(=O)(=O)c1ccc(C(=O)O)cc1`, inactive: 2.
With `CN/C(=C\[N+](=O)[O-])NCCSCc1ccc(CN(C)C)o1.Cl` [Ranitidine hydrochloride], the “cell-cell fusion (z-score)” value was inactive: 3.5.
In the case of `CN/C(=C\[N+](=O)[O-])NCCSCc1ccc(CN(C)C)o1.Cl`, the “cell-cell fusion (z-score)” value is inactive: 1.94.
Take `C[N+](C)(C)C[C@H](O)CC(=O)[O-]`: the “cell-cell fusion (z-score)” value was inactive: 2.28.
In the case of `C=CC[C@@H]1/C=C(\C)C[C@H](C)C[C@H](OC)[C@H]2O[C@@](O)(C(=O)C(=O)N3CCCC[C@H]3C(=O)O[C@H](/C(C)=C/[C@@H]3CC[C@@H](O)[C@H](OC)C3)[C@H](C)[C@@H](O)CC1=O)[C@H](C)C[C@@H]2OC` [Tacrolimus], the “cell-cell fusion (z-score)” value was active: -15.8.
With `C/C=C(/C)C(=O)O[C@H]1CC[C@@]2(C)[C@@H]3CC[C@H]4[C@]5(O)C[C@H](O)[C@@]6(O)[C@@H](CN7C[C@@H](C)CC[C@H]7[C@@]6(C)O)[C@]5(O)C[C@@]42O[C@]13O.Cl`, the “cell-cell fusion (z-score)” value was inactive: 0.944.
Turning to `CNC(=O)c1cc(Oc2ccc(NC(=O)Nc3ccc(Cl)c(C(F)(F)F)c3)cc2)ccn1` [Sorafenib], the “cell-cell fusion (z-score)” value was active: -6.7.
The result for `Cn1nnc(-c2ccc(-c3ccc(N4C[C@H](CO)OC4=O)cc3F)cn2)n1` [Torezolid] reads inactive: 2.42; that for `Cl.O=C1NCCc2[nH]c(-c3ccncc3)cc21`, inactive: 2.31 and inactive: 0.2; that for `CC(=O)OCC(COC(C)=O)OC(C)=O`, inactive: 2.54.
Turning to `C[C@@H]1O[C@@H](O[C@H]2C[C@@H](O)[C@]3(CO)C4C(CC[C@]3(O)C2)[C@@]2(O)CC[C@H](C3=CC(=O)OC3)[C@@]2(C)C[C@H]4O)[C@H](O)[C@H](O)[C@H]1O.O.O.O.O.O.O.O.O` (stereo not given in full), the “cell-cell fusion (z-score)” value was inactive: 1.61.
The result for `CCCCCCCCCCCCCCCC(=O)OCC(O)[C@H]1OC(=O)C(O)=C1O` (stereo not given in full) reads inactive: 0.937; that for `CN1CCC[C@@H]1Cc1c[nH]c2ccc(Nc3ncccc3[N+](=O)[O-])cc12`, inactive: -2.41; that for `CC#CC(=O)N1CCC[C@H]1c1nc(-c2ccc(C(=O)Nc3ccccn3)cc2)c2c(N)nccn12` [Acalabrutinib], inactive: 1.12.
The result for `CC1(C)CCC(c2ccc(Cl)cc2)=C(CN2CCN(c3ccc(C(=O)NS(=O)(=O)c4ccc(N[C@H](CCN5CCOCC5)CSc5ccccc5)c(S(=O)(=O)C(F)(F)F)c4)cc3)CC2)C1` [ABT-263 (Navitoclax)] reads inactive: 2.22; that for `CCC(C(N)=O)c1ccccc1` (stereo not given), inactive: 0.448.
